# Data from the supplement of paper PMC8104966.
# The other results are listed elsewhere or left out. Repeats in this data set agree poorly, so a single value says little.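 Fusion between ACE2-bearing and full-length-spike-bearing U2OS cells was measured by imaging as the percentage of nuclei with both cell types' fluorescent markers. An inhibitory hit is a non-toxic compound whose fusion z-score is below -3, more than three standard deviations beneath the plate's DMSO wells.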
# Tested on: U2OS ACE2 x SARS-CoV-2 spike co-culture
# Test: cell-cell fusion (fraction fused) z-score vs plate DMSO control; higher = more fusion
# Conditions: 30 µM; 5 h; toxicity class: non-toxic, passed QC
row,Compound,cell-cell fusion (z-score)
1,CCN1CCc2nc(N)oc2CC1.Cl.Cl [B-HT 933 dihydrochloride],inactive: 2.72
2,COC(=O)/C=C/C(C)=C/C=C/C(C)=C/C=C/C=C(C)/C=C/C=C(C)/C=C/C(=O)O,inactive: 2.04
3,NC(=O)c1noc([C@H](CCCC2CCCCC2)CC(=O)NO)n1,inactive: 2.37
4,O=C(Cc1ccccc1)NO,inactive: 2.86
5,Cc1cc(=O)[nH]c(=S)[nH]1,inactive: 0.0667
6,CC1=NN(c2ccccc2)C(=O)C1,inactive: 3.1
7,CC1=NN(c2ccccc2)C(=O)C1 [Edaravone],inactive: 0.365
8,Cl.N=C(N)NC(=N)N1CCOCC1,inactive: 2.03
9,Cl.N[C@@H](CCC(=O)O)C(=O)O [L-Glutamic acid hydrochloride],inactive: 0.596
10,C[C@]12CC[C@H](O)CC1=CC[C@@H]1[C@@H]2CC[C@]2(C)C(c3cccnc3)=CC[C@@H]12 [Abiraterone],inactive: 2.34
11,CC[C@@]1(O)C(=O)OCc2c1cc1n(c2=O)Cc2cc3c(CN(C)C)c(O)ccc3nc2-1.Cl,inactive: 3.58
12,CN1CCCCC1CCN1c2ccccc2Sc2ccc(S(C)=O)cc21.O=S(=O)(O)c1ccccc1 (configuration not stated),inactive: 2.59
13,CC(C)[N+]1(C)[C@@H]2CC[C@H]1C[C@@H](OC(=O)C(CO)c1ccccc1)C2.O.[Br-] (some centres not stated) [Ipratropium bromide monohydrate],inactive: 1.32
14,Cl.NC1=NCC2c3ccccc3Cc3ccccc3N12 (configuration not stated) [Epinastine HCl],inactive: 2.61
15,COc1cc(Cc2cnc(N)nc2N)cc(OC)c1OC [Trimethoprim],inactive: 0.473
16,CC(=O)Nc1nnc(S(N)(=O)=O)s1 [Acetazolamide],inactive: 2.07
17,CN(C)c1ccccc1CN1CCCN(Cc2ccccc2N(C)C)C1c1ccncc1,inactive: 1.88
18,Cn1cnc([N+](=O)[O-])c1Sc1[nH]cnc2ncnc1-2,inactive: 0.856
19,COc1cc(OC)c2c(=O)c(OC)c(-c3ccccc3)oc2c1,inactive: 1.06
20,CC1(C)C(=O)C=C[C@@]2(C)C1=C(O)C(=O)[C@]1(C)C2CC[C@@]2(C)[C@H](c3ccoc3)C[C@H]3O[C@]321 (some centres not stated),inactive: 0.898
21,O=C1NC(=O)/C(=C/c2ccc3c(c2)OC(F)(F)O3)S1,inactive: 0.0313
22,CC(=O)OCC(=O)[C@@]1(O)CCC2C3CCC4=CC(=O)CC[C@]4(C)[C@@]3(F)[C@@H](O)C[C@@]21C (some centres not stated),inactive: 0.101

# Retrieved one by one from above, 2 records:
row,Compound,cell-cell fusion (z-score)
18,Cn1cnc([N+](=O)[O-])c1Sc1[nH]cnc2ncnc1-2,inactive: 0.856
20,CC1(C)C(=O)C=C[C@@]2(C)C1=C(O)C(=O)[C@]1(C)C2CC[C@@]2(C)[C@H](c3ccoc3)C[C@H]3O[C@]321 (some centres not stated),inactive: 0.898
